Some of these results come from one statement about several compounds together.
Legend:
[1] = tested on: Plasmodium falciparum (Dd2 and Nf54); assay: P. falciparum growth assay / dose-response in human erythrocyte culture (parasitemia after 72 h, acridine orange, FACS); type: cell-based; settings: P. falciparum in human erythrocytes, about 72 hours post compound addition; listed as poly-Lys
Source text: FIG. 4A-FIG. 4D. […] DHHC8 transcript codes for five consecutive lie-residues. Levels of each transcript are normalized to total ribosome levels and represented as a ratio of transcript levels under Ile starvation (−Ile) over the control conditions (+Ile). […] Western blot analysis of Ile starved (−Ile), and control (+Ile) sample are normalized to PfHAD1 (PF3D7_1033400) levels. HA-tagged P. falciparum Pelo protein was CRISPR/Cas9 engineered and detected using mouse HA-antibody. The molecular weight of each protein is indicated. […] (D) P. falciparum growth assay in the presence of different compounds and amino acid polymers. Data represent endpoint parasitemia after 72-hour treatment with the indicated compound. Results are normalized to non-treated cultures (control) and presented as a percentage of control samples. Average value from three biological replicates is reported with standard deviation. […]
Dose-response experiments were performed in triplicate with mixed culture of P. falciparum (1.0%-1.2% starting parasitemia). Parasitemias (percentage of total erythrocytes infected with parasites) were measured approximately 72 hours post compound addition by nucleic acid staining of infected red blood cells with 0.8 mg/ml acridine orange in PBS. […]

[2] = Oral drug delivery to blood; type: in vivo; settings: over 6 hours period

**Q.** Which IC50 [1] does the source give for poly-L-lysine here?
**A.** less than 10 μg/ml

**Q.** What about the “oral drug delivery for blood” value [2] of the same substance?
**A.** 5-10%
